Drawing on PubChem BioAssay AID445 (National Center for Advancing Translational Sciences (NCATS), 2006), this text covers AC50 for 63 compounds.

The list shows a part of the results. The main result of the screen is listed elsewhere. These columns were measured beside it and carry no call. Most of these compounds were active or inconclusive in the main read-out, so they are no random draw. Potencies come from curve fits of mixed quality, noted in brackets.

This test can be described thus: IkB Signaling. As to conditions: ABC-DLBCL IkBa-CBG/CBR dual luciferase ratio (green luciferase fused to IkBa over red control in OCI-Ly3 lymphoma cells), 4 h; measured here: control luc red channel unless noted. The text has this:
NIH Molecular Libraries Screening Centers Network [MLSCN]
NIH Chemical Genomics Center [NCGC]
Nuclear factor kappa-B (NF-kappa-B) plays an important role in normal B cell development and survival. Diffuse large B cell lymphoma (DLBCL) is the most commonly observed type of non-Hodgkin's lymphoma. Gene expression analysis has identified an activated B cell-like subtype of DLBCL (ABC-DLBCL) which expresses known NF-kappa-B target genes. […] However, targets upstream of IKK have been largely unexplored and so nodes upstream of IKK in the NF-kappa-B pathway remain untested due to the lack of chemical probes.
A cell-sensor assay for I-kappa-B-alpha stabilization was developed with NIH investigator Dr. R. Eric Davis in Dr. Louis M. Staudt's laboratory. The assay uses green (CBG68) and red (CBR) emitting beetle luciferases [Chroma-Glo(TM) developed by Promega Corp.] where the green luciferase is fused to I-kappa-B-alpha and the red luciferase is present in its native state. Both luciferase genes are stably present in the OCI-Ly3 human ABC DLBCL cell line, but their expression is under the control of tetracycline-inducible promoters. Following the addition of doxycycline to induce expression of the luciferases, the green luminescence in control cultures rises only slowly because the CBG fusion partner I-kappa-B-alpha is targeted by IKK activity for rapid degradation. In contrast, green luminescence rises rapidly in the presence of proteasome inhibitors or IKK inhibitors. The rise in red luminescence of CBR is not affected by proteasome or IKK inhibitors, and serves as normalization for cell number and nonspecific effects. Compounds were screened as a concentration-titration series that ranged from 57 uM to 0.7 nM.
NCGC Assay Protocol Summary:
Cells were seeded in 1536-well plates at 5000 cells/3ul in IMDM medium containing 0.5% FBS, w/o phenol red, L-glutamine, 25 mM HEPES, 3 mg/ml sodium bicarbonate. After centrifugation for 1 min. at 1000 rpm, 23 nl of compounds or DMSO were delivered to each well using a pin tool. Then 1ul 80ng/ml doxycycline was dispensed into white solid 1536-well plates and the plates were incubated at 37C/5% C02 in a cell incubator for 4 hrs. Then 4 ul Chroma-Glo luminescent substrate mix (Promega) was added to each well. The plate was incubated at R.T. for 10-15 min. The plates were measured on a ViewLux plate reader for green luminescence (540/20 nm filter) and red luminescence (618/8 nm filter). The green and red luminescent signals were corrected for red and green luminescence filter overlap using previously determined filter calibration constants (determined using the procedure outlined in the Promega Technical Manual). The %Activity was determined from the ratio of corrected green/red luminescent values. Green luminescent and ratio %Activity was determined by normalizing to the difference in signal between basal cells (0% Activity) and cells incubated with 10 uM of the proteasome inhibitor MG-132 (100% Activity). Red luminescent %Activity was normalized to the difference between red luminesence in basal cells (0%Activity) and zero luminescence (-100% Activity).
Concentration-response curves were fitted to the signals arising from the green luminescence (I-kappa-B-alpha-luciferase fusion; IkB-luc) and the red luminescence (unfused luciferase; luc) as well as the calculated ratio. The concentration-effect curves were then classified based on curve quality (r2), response magnitude and degree of measured activity. Compounds were then categorized based on their concentration-response curves for all three datasets (Ikb-luc, luc and ratio).
Keywords: IKK, I-kappa-B, IkB, IkBa, cytotoxicity, luminescence, MLSMR, MLSCN, NIH Roadmap, qHTS, NCGC
One may read the AC50 as the concentration giving half of the maximal activity seen. For the compound `COc1ccc(-c2cc3nc(C)c(CCC(=O)Nc4cccc(C(F)(F)F)c4)c(C)n3n2)c(OC)c1`, the AC50 was 0.158 µM [falling, full curve]. Regarding `CCn1cc2nc(SCC(=O)Nc3ccccc3F)n(Cc3ccc(C)cc3)c(=O)c2n1`, the AC50 was 20 µM [falling, partial curve]. Under `Cc1ccnc(NC(=O)c2c(C)oc3ncn(CC(C)C)c(=O)c23)c1` stands 0.2 µM [rising, full curve]; under `Cc1ccc(CNC(=O)Nc2cn(CC(C)C)c(=O)c3ccccc23)cc1`, 10 µM [falling, partial curve]. Under `CN(C(=O)Cn1cc(S(=O)(=O)N2CCN(c3ccccc3F)CC2)c2ccccc2c1=O)c1ccc(Cl)cc1` stands 7.94 µM [falling, partial curve, poor fit]. Turning to `COc1cc(-c2nnc(SCC(=O)N(Cc3ccccc3)C(C)(C)C)o2)cc(OC)c1OC`, the AC50 is 20 µM [falling, partial curve]. In the case of `Cc1ccc(C(=O)Nc2ccccc2C(=O)O)cc1S(=O)(=O)N1CCCCCC1` it was 3.98 µM [falling, partial curve]; in that of `O=C(Nc1sc2c(c1C(=O)Nc1ccc(Cl)cc1)CCCC2)c1cccs1`, 3.98 µM [falling, full curve]; in that of `Cc1ccccc1-c1nc(CS(=O)(=O)CC(=O)NCc2ccc3c(c2)OCO3)c(C)o1`, 12.6 µM [falling, partial curve].

As for `CCc1ccc2oc(-c3cccc(NC(=O)c4cc5ccccc5o4)c3)nc2c1`, the AC50 is 3.16 µM [falling, partial curve]. As to `Cc1nc2ccccc2c(=O)n1CCCn1ccnc1`, the AC50 is 7.94 µM [rising, partial curve]. In the case of `Cc1nc2c(C(=O)O)cnn2c(C)c1Cc1ccccc1` it was 0.158 µM [falling, full curve]; in that of `CCCc1nn2c(=O)cc(COC(=O)c3ccc(NC(=O)CCc4ccccc4)cc3)nc2s1`, 0.794 µM [falling, full curve]; in that of `Cc1c(NC(=O)C(C)OC(=O)c2cc3c4ccccc4n(C)c3s2)c(=O)n(-c2ccccc2)n1C` (stereo not drawn), 5.01 µM [falling, partial curve].

On to `O=C(Nc1nnc(C(F)(F)F)s1)c1cccnc1`, for which the AC50 was 2.51 µM [falling, full curve]. In the case of `O=C1c2ccccc2C(=O)N1CSc1nnnn1-c1ccccc1` it was 39.8 µM [rising, single point]; in that of `N#Cc1c(N)[nH]c(=S)c(C#N)c1-c1ccccc1`, 39.8 µM [falling, single point]; in that of `COc1ccc(NC(=O)Cn2c(=O)cc(C)c3c(C)nn(-c4cccc(Cl)c4C)c32)cc1OC`, 1.58 µM [rising, partial curve, poor fit]. In the case of `O=C(NC1CC(=O)N(c2ccc3c(c2)OCCO3)C1)c1c(F)cccc1Cl` (stereo not drawn) it was 5.01 µM [rising, partial curve]. In the case of `O=C(NCCc1csc(-c2ccc(F)cc2)n1)c1cccs1` it was 20 µM [falling, partial curve]; in that of `CCOC(=O)c1cc(-c2ccccc2)n(CC(=O)NC2CCC(C)CC2)c1C` (stereo not drawn), 39.8 µM [falling, single point]; in that of `Cc1c(NC(=O)Nc2ccc(Cl)c(Cl)c2)c(=O)n(-c2ccccc2)n1C`, 20 µM [falling, partial curve].

For the compound `Cc1ccc2c(c1)c(=O)c(C(=O)c1ccc3c(c1)OCO3)cn2Cc1cccc(F)c1`, the AC50 was 39.8 µM [falling, single point]. In the case of `CCC(=O)n1nc(NCc2ccccc2OC)nc1NCc1ccccc1OC` it was 12.6 µM [falling, partial curve]; in that of `Cc1ccc(-c2nn(-c3ccc(F)cc3F)c3c2cnc2c(F)cccc23)cc1`, 0.0794 µM [rising, full curve]. In the case of `Cc1ccc(NC(=O)CSc2nc3ccccc3c3nc(CCc4c(C)n[nH]c4C)nn23)c(C)c1`, the AC50 is 2.51 µM [rising, partial curve].

Regarding `Cc1ccc(Cn2nnc3c(=O)n(Cc4cccc(C)c4)cnc32)cc1`, the AC50 was 31.6 µM [falling, single point].

Consider `Cc1ccc(N2C(=O)CS(=O)(=O)C23C(=O)N(C)c2ccccc23)cc1F` (stereo not drawn), for which the AC50 was 39.8 µM [falling, single point]. Take `Cc1ccc(C)c(Nc2cc(C(=O)NCCCN(C)C3CCCCC3)c3ccccc3n2)c1`: the AC50 was 25.1 µM [falling, partial curve]. Under `O=C(Cc1c[nH]c2ccccc12)Nc1nc2ccccc2[nH]1` stands 12.6 µM [falling, partial curve]. Turning to `Cc1ccc(N2CCN(C(=O)c3c(C)oc4ncnc(N5CCOCC5)c34)CC2)c(C)c1`, the AC50 is 15.8 µM [falling, partial curve]. In the case of `Cc1ccc(C(=O)Nc2nnc(S(=O)(=O)N3CCN(c4ccc(F)cc4)CC3)s2)cc1` it was 12.6 µM [falling, single point]; in that of `Cc1ccc(CN2CCCn3nc(C(=O)NCc4cc(C)ccc4C)cc3C2=O)cc1`, 20 µM [falling, partial curve]; in that of `Cc1ccc(CNC(=O)c2cnc3c(-c4ccccc4)c(C)nn3c2C)o1`, 39.8 µM [falling, single point]. `COCCCNC(=O)c1cnn(-c2ccc(F)cc2F)c1C1CCNCC1`: the AC50 is 1 µM [rising, full curve]. `Nc1ccc2nc(-c3ccc(O)cc3)sc2c1`: the AC50 is 12.6 µM [falling, partial curve]. As for `COc1ccc(NC(=O)CC2C(=O)N(c3ccc(F)cc3)C(=O)N2CCc2sccc2C)cc1` (stereo not drawn), the AC50 was 39.8 µM [falling, single point]. Under `CCOc1ccc(Nc2ncnc3c2cnn3-c2ccc(F)cc2)cc1` stands 7.94 µM [falling, partial curve, poor fit]; under `Cc1nc2c(C(=O)NCc3ccccc3Cl)cnn2c(C)c1Cc1ccccc1`, 10 µM [falling, partial curve]. Under `Cc1ccc(C)c(-n2cc(-c3ccccc3)nc2SCC(=O)Nc2ccccc2)c1` stands 20 µM [falling, partial curve, poor fit]; under `COc1cccc(-c2csc(-c3c(N)c(C(=O)c4ccccc4)n4ccccc34)n2)c1`, 12.6 µM [falling, partial curve]. Under `CCOC(=O)c1ccccc1NC(=O)Cn1c(=O)n(CCCC(=O)NCc2ccc3c(c2)OCO3)c(=O)c2ccccc21` stands 31.6 µM [falling, single point]; under `CC12CC(NC(=O)N1c1ccc(C(=O)N3CCN(c4ccc(F)cc4)CC3)cc1)c1ccccc1O2` (stereo not drawn), 15.8 µM [falling, partial curve]; under `Cc1ccc(Cl)cc1N1CCN(C(=O)CCS(=O)(=O)c2cccc3nonc23)CC1`, 20 µM [falling, partial curve]. Consider `COc1ccc(NC(=O)C(C)n2nc(-c3cc(C)ccc3C)c3c(c2=O)CCCC3)cc1` (stereo not drawn), for which the AC50 is 15.8 µM [falling, partial curve]. In the case of `O=C(NCCc1ccccc1)C(=O)NCC(c1ccco1)S(=O)(=O)c1ccccc1` (stereo not drawn) it was 6.31 µM [rising, single point]; in that of `CCOc1ccc(NC(=O)CSc2nnc(-c3ccncc3)n2-c2ccccc2)cc1`, 0.251 µM [rising, full curve]. Under `Cc1ccc(C(=O)/C=C/Nc2ccccc2C(N)=O)o1` stands 6.31 µM [falling, partial curve].

Turning to `COc1ccc(CNC(=O)c2ccc(CSc3nc4ccncc4n3Cc3ccccc3F)cc2)cc1`, the AC50 was 15.8 µM [falling, partial curve].

Consider `O=C(CSc1c2c(nc3cc(Cl)ccc13)CCCC2)N1CCN(c2ccccc2F)CC1`, for which the AC50 is 15.8 µM [falling, partial curve]. Turning to `COc1ccccc1NC(=O)CSc1oc(-c2ccccc2)nc1S(=O)(=O)c1ccc(C)cc1`, the AC50 is 12.6 µM [falling, partial curve]. As to `Cc1ccc2nc(-c3cccnc3)c(Nc3ccc(C(C)C)cc3)n2c1`, the AC50 is 0.316 µM [rising, partial curve]. Under `O=C(NCCc1ccc(Cl)cc1)C1COc2ccccc2C1` (stereo not drawn) stands 31.6 µM [falling, single point]; under `O=C(c1ccc(F)cc1)n1nc(-c2cccnc2)nc1NCc1ccc(F)cc1`, 12.6 µM [falling, partial curve]. In the case of `Cc1nc(-c2ccc(S(=O)(=O)N3CCN(c4cc(Cl)ccc4C)CC3)cc2)co1` it was 25.1 µM [falling, single point]; in that of `Cc1ccc(S(=O)(=O)c2nc(-c3cccs3)oc2SC(C)C)cc1`, 3.16 µM [falling, single point]; in that of `CCCc1nnc(NC(=O)CN2C(=O)c3ccccc3S2(=O)=O)s1`, 12.6 µM [falling, partial curve]. Under `COc1cc(NC(=O)N2CCC3(CC2)Nc2ccccc2-n2cccc23)cc(OC)c1OC` stands 12.6 µM [falling, partial curve, poor fit]. `Cc1nc(SCC(=O)NCc2ccco2)c2c(C)c(C)sc2n1`: the AC50 was 31.6 µM [falling, partial curve]. In the case of `Cc1cc(C)c(NC(=O)CCCn2c(C)c3cnn(-c4ccccc4)c(=O)c3c2C)c(C)c1` it was 25.1 µM [falling, single point]; in that of `CC(C)CC(=O)Nc1nnc(SCc2cc(=O)n3ccccc3n2)s1`, 39.8 µM [falling, single point]. Under `CCN(CC)S(=O)(=O)c1ccc2[nH]cc(C(=O)NCCc3ccccc3)c(=O)c2c1` stands 6.31 µM [falling, partial curve]; under `COc1cccc2cc(-c3nc(-c4cccs4)cs3)c(=O)oc12`, 2 µM [falling, full curve].
